According to PubChem BioAssay AID493014 (National Center for Advancing Translational Sciences (NCATS), 2011):
The list shows a part of the results. The main result of the screen is listed elsewhere. These columns were measured beside it and carry no call. The list favours compounds with an active or inconclusive main result. Words in brackets tell the shape of the fitted curve; partial curves, single points and poor fits give uncertain potencies.

Assay: qHTS Assay to Find Inhibitors of Chronic Active B-Cell Receptor Signaling
Details: ABC-DLBCL IkBa-CBG/CBR reporter, luminescence ratio (green luciferase fused to IkBa over red control in TMD8 lymphoma cells), 4 h
Summary of the method: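 Compounds up to 46 uM were incubated four hours with TMD8 cells whose green CBG68 luciferase is fused to IkappaBalpha; red CBR luminescence normalised the signal, and concentration-effect curves were fitted to fusion, red and ratio data.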

[1] = measured here: CBR red luminescence, cell number

Row | SMILES | AC50 [1] | AC50 (measured here: IkBa-CBG green luminescence)
1 | Cc1nn(-c2ccccc2)c(C)c1NC(=O)COc1ccc2ccccc2c1 | 31.6 µM [falling, single point] | –
2 | O=C(O)c1ccc(CNC(=O)c2ccc(C(F)(F)F)cc2)cc1 | 35.5 µM [falling, single point] | –
3 | Cc1nc2ccc(NC(=O)c3cccc(S(=O)(=O)N4CC(C)OC(C)C4)c3)cc2s1 (stereo unspecified) | 4.11 µM [rising, single point] | –
4 | CCOc1ccccc1/C=N/Nc1cc(C)nc2ccc(C)cc12 | 0.1 µM [falling, full curve, poor fit] | –
5 | Cc1ccnc(NC(=O)c2cc3ccccc3o2)c1 | 2.31 µM [falling, full curve] | –
6 | COc1ccc(OCC(=O)Nc2cccc(C(=O)Nc3ccccc3C(=O)O)c2)cc1 | 25.9 µM [falling, partial curve, poor fit] | –
7 | Cc1ccc(/C=N/N2CCN(c3ccccn3)CC2)o1 | 12.6 µM [falling, single point] | –
8 | O=C(CCc1ccccc1)NNC(=O)COc1ccc([N+](=O)[O-])cc1 | 0.0891 µM [rising, full curve, poor fit] | –
9 | Cc1cc(/C=C(\C#N)C(=O)OCC(=O)Nc2ccc(OC(F)F)cc2)c(C)n1CC(C)C | 1.46 µM [rising, full curve, poor fit] | –
10 | CN(C)CC(CCCCC(CN(C)C)C(=O)c1ccccc1)C(=O)c1ccccc1 (stereo unspecified) | 12.6 µM [falling, partial curve, poor fit] | –
11 | CCc1ccc(S(=O)(=O)c2n[nH]n3c2nc(=O)c2ccccc23)cc1 | – | 18.4 µM [rising, partial curve, poor fit]
12 | COc1ccc(-c2ccc(C(c3c(C)[nH][nH]c3=O)c3c(C)[nH][nH]c3=O)o2)c([N+](=O)[O-])c1 | 6.31 µM [falling, partial curve] | –
13 | COC(=O)c1ccc(C2/C(=C(/O)c3ccc(OC)cc3)C(=O)C(=O)N2c2cc(C)on2)cc1 (stereo unspecified) | 11.2 µM [falling, partial curve] | –
14 | CCOC(=O)N1CCN(CC(=O)Nc2c(C(=O)OC)[nH]c3ccccc23)CC1 | 20 µM [rising, partial curve, poor fit] | –
15 | NC(=O)N1CCC2(CC1)NC(=O)N(c1ccccc1)N2 | 12.6 µM [rising, single point] | –
16 | CC(=O)Nc1ccc(OCC(O)Cn2nc(C)c(C)c2C)cc1 (stereo unspecified) | 4.47 µM [falling, single point] | –

Entries from the list above that contain a COOH group, in the order listed:
Row | SMILES | AC50 [1] | AC50 (measured here: IkBa-CBG green luminescence)
2 | O=C(O)c1ccc(CNC(=O)c2ccc(C(F)(F)F)cc2)cc1 | 35.5 µM [falling, single point] | –
6 | COc1ccc(OCC(=O)Nc2cccc(C(=O)Nc3ccccc3C(=O)O)c2)cc1 | 25.9 µM [falling, partial curve, poor fit] | –

More structures:

Row | SMILES | AC50 [1] | AC50 (measured here: IkBa-CBG green luminescence)
17 | CN(C)C(=O)c1nc2ccccc2s1 | 29.1 µM [falling, single point] | –
18 | Cn1c(C2CCCCC2)nc2ccccc21 | 15.8 µM [rising, single point] | –
19 | Nc1ccccc1Nc1cccc(C(F)(F)F)c1 | 20 µM [falling, partial curve] | –
20 | O=C(Nc1cccnc1)c1ccc(-c2ccc(Cl)cc2)o1 | 12.6 µM [falling, single point] | –
21 | COc1ccccc1N1CCN(Cc2cc(Br)c(O)c3ncccc23)CC1 | 6.51 µM [rising, single point] | –
22 | COc1ccccc1NC(=O)c1ccc(C(=O)c2ccccc2)o1 | 15.8 µM [falling, single point] | –
23 | COc1cccc(CNC(=O)c2ccc3c(c2)N(Cc2ccc(F)cc2Cl)C(=O)c2ccccc2S3)c1 | 22.4 µM [falling, partial curve, poor fit] | –
24 | CCOC(=O)[C@H]1[C@H]2COc3ccc(C)cc3[C@@H]2N2C(=O)c3cc(Br)ccc3NC(=O)[C@@]12C | 29.1 µM [falling, single point] | –
25 | COC(=O)c1ccc2c(=O)n(CCO)c(=S)[nH]c2c1 | 18.4 µM [falling, single point] | –
26 | Cc1ccsc1/C=N/NC(=O)c1nnn(-c2nonc2N)c1CN(C)c1ccccc1 | 35.5 µM [falling, single point] | –
27 | CC(=O)c1cccc(NC(=O)N2CCCC2C(=O)Nc2cccc(C)c2)c1 (stereo unspecified) | 35.5 µM [rising, single point] | –
28 | CCCOC(=O)C1=C(C)NC2=C(C(=O)CCC2)C1c1ccc(N(C)C)cc1 (stereo unspecified) | 11.2 µM [rising, partial curve, poor fit] | –
29 | COc1ccc(C(=O)N2C(=S)NC(=O)/C2=C\c2ccc(C)cc2)cc1 | 1.84 µM [rising, partial curve, poor fit] | –
30 | CC(C)Oc1ccc(/C=C(/NC(=O)c2ccccc2)C(=O)NCCC(=O)O)cc1 | 35.5 µM [falling, partial curve, poor fit] | –
31 | N#CCCn1nc(-c2ccccc2)c2ccccc2c1=O | 35.5 µM [rising, single point] | –
